Experimental data reported in article PMC6486640, “The ATPase mechanism of UvrA2 reveals the distinct roles of proximal and distal ATPase sites in nucleotide excision repair” (Nucleic Acids Research, 2019).
These are yes or no findings as the source states them, for the method shown. Some binding calls cover weakened binding; strength is not graded here.

Target: Thermotoga maritima UvrA Δ117-399 (Thermotoga maritima) (UniProt Q9WYV0)
Test: crystal structure; 2.0 Å; T. maritima UvrA2 dimer, fully ADP-bound, open conformation; both purified

B1: Thermotoga maritima UvrA Δ117-399 (enzyme, UniProt Q9WYV0)
chain: MNEIVVKGARVHNLKNITVRIPKNRLVVITGVSGSGKSSLAMDTIYAEGQRRYLESLSTYARQFLGNLKKPDVDEIEGLSPAIAIDQKTVSHNPRSTVGTVTEIYDYLRVLYARIGKINGLNIHEFTELSISEELEFLKNLNLTEREREIVGELLKEIEKRLEFLVDVGLEYLTLSRSATTLSGGESQRIRLATQIGSGLTGVIYVLDEPTIGLHPRDTERLIKTLKKLRDLGNTVIVVEHDEEVIRNADHIIDIGPGGGTNGGRVVFQGTVDELLKNPDSSLTGEYLSGKRKITVNKTRRLPYASLKIKGVRHNNLKNIDVEIPLGVFVCVTGVSGSGKSSLVMETLYPALMNLLHKTKLPAGEFDSIEGHENIDKMIAIDQSPIGRTPRSNPATYTKVFDEIRSLFAMTPAAKARGYNKSRFSFNLKGGRCEACQGQGYVKIEMLFLPDVYVECDVCKGKRYNRETLEITYKGKNISDILDMTVDEALEFFKNIPSIKRTLQVLHDVGLGYVKLGQPATTLSGGEAQRIKLASELRKRDTGRTLYILDEPTVGLHFEDVRKLVEVLHRLVDRGNTVIVIEHNLDVIKNADHIIDLGPEGGKEGGYIVATGTPEEIAKNPHSYTGRFLKNVL
- binding: binds
